According to paper PMC4498735, “Fibulin-1C, C1 Esterase Inhibitor and Glucose Regulated Protein 75 Interact with the CREC Proteins, Calumenin and Reticulocalbin” (PLoS ONE, 2015):
These are yes or no findings as the source states them, for the method shown. Some results given as binding are weak or reduced against the parent protein; the word gives no strength. Sequences can lack the tags named with a protein.

Key:
[1] = biological target: T1, GST-calumenin (UniProt O43852); assay: condition: only 0.1 mM Ca2+ in the dissociation phase; SPR; GST-calumenin immobilised; association phase with 4 mM free Ca2+; Ca2+ in the dissociation phase 0.1 mM; both purified
T1 sequence: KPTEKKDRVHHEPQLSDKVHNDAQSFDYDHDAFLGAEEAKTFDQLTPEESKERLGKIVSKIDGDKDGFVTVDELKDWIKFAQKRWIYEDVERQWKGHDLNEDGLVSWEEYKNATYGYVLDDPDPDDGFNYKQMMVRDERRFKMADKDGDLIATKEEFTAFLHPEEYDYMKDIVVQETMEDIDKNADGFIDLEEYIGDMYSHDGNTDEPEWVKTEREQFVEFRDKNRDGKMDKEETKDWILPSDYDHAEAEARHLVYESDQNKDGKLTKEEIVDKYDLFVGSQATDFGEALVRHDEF

[2] = biological target: T1, GST-calumenin; assay: SPR; GST-calumenin immobilised; association phase with 4 mM free Ca2+; Ca2+ in the dissociation phase 3.5 mM to 0.5 mM; both purified

B1: C1 esterase inhibitor (commercial, Calbiochem) (protein, UniProt P05155 23-500)
chain: NPNATSSSSQDPESLQDRGEGKVATTVISKMLFVEPILEVSSLPTTNSTTNSATKITANTTDEPTTQPTTEPTTQPTIQPTQPTTQLPTDSPTQPTTGSFCPGPVTLCSDLESHSTEAVLGDALVDFSLKLYHAFSAMKKVETNMAFSPFSIASLLTQVLLGAGENTKTNLESILSYPKDFTCVHQALKGFTTKGVTSVSQIFHSPDLAIRDTFVNASRTLYSSSPRVLSNNSDANLELINTWVAKNTNNKISRLLDSLPSDTRLVLLNAIYLSAKWKTTFDPKKTRMEPFHFKNSVIKVPMMNSKKYPVAHFIDQTLKAKVGQLQLSHNLSLVILVPQNLKHRLEDMEQALSPSVFKAIMEKLEMSKFQPTLLTLPRIKVTTSQDMLSIMEKLEFFDFSYDLNLCGLTEDPDLQVSAMQHQTVLELTETGVEAAAASAISVARTLLVFEVQQPFLFVLWDQQHKFPVFMGRVYDPRA
binding [1]: no binding
binding [2]: binds
